Among the data in publication PMC10305195 are binding values, retold here.

Amino acid sequences for entries named in this document (tags omitted). Residues count along the entry.
UniProt P02769, residues 25-607: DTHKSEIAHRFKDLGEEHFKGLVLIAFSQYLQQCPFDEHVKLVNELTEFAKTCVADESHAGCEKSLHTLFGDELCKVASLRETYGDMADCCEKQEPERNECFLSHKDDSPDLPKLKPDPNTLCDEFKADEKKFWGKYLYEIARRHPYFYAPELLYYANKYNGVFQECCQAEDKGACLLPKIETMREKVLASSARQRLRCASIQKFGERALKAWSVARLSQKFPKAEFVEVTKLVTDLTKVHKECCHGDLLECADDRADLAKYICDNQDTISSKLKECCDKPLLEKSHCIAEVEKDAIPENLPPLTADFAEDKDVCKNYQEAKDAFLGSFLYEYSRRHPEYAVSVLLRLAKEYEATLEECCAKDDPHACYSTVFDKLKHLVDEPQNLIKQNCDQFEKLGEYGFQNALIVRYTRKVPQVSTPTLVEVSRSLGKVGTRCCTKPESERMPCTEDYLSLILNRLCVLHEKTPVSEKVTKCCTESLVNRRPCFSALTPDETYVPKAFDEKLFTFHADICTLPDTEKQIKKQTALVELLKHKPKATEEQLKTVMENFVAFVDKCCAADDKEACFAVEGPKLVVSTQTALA
UniProt P00588, residues 33-225: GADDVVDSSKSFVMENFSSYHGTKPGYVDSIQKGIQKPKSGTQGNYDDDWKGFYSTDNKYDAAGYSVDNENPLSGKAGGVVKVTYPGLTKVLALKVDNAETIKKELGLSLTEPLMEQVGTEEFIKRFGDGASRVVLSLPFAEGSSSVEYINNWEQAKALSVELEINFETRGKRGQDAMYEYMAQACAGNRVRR

The assay has as its target BSA (bovine (from the name BSA)) (UniProt P02769). As to the kind of experiment: far-Western, overlay or dot blot; both purified.

No constants are given. Whether binding was seen depends on the method and setting.

For the substance “DTA, A-subunit of diphtheria toxin (amino acids 1-193) without any tag (from UniProt P00588 33-225) (enzyme)”, the binding result is “no binding”.
